The values that follow are results of earlier work, collected in patent publication US20070173463A1, “Method and composition for treating otitis media” (priority 2006, published 2007).

The conditions of the data set: topical use in the ear; cited from earlier work.

SMILES strings stand for the structures.

Consider `O=C(O)c1cn(C2CC2)c2cc(N3CCNCC3)c(F)cc2c1=O` [ciprofloxacin], for which the “toxicity for the inner ear (ototoxicity)” value is “demonstrated lack of toxicity for the inner ear”.
